Laboratory results reported in patent publication US12116285B2, “Porous silica particle composition” (FUJI CHEMICAL INDUSTRIES CO., LTD., priority 2018, dated 2024).
For at least one compound, name, drawing or mass did not settle the structure.

Assay: Dissolution test of itraconazole solid dispersions (Japanese Pharmacopoeia, first fluid)
Format: physicochemical

CCC(C)n1ncn(-c2ccc(N3CCN(c4ccc(OCC5COC(Cn6cncn6)(c6ccc(Cl)cc6Cl)O5)cc4)CC3)cc2)c1=O (stereo not drawn) [Spray dried powder of itraconazole, itraconazole]
Amount of itraconazole dissolved (30 minutes, A: immediately after production, 30 mg in 500 mL first fluid, 37° C.): 27.5 µg/mL
Amount of itraconazole dissolved (30 minutes, B: stored at 40° C. and 75% RH open for one month): 22.9 µg/mL
Amount of itraconazole dissolved (60 minutes, A: immediately after production): 35.0 µg/mL
Amount of itraconazole dissolved (60 minutes, B: stored at 40° C. and 75% RH open for one month): 28.9 µg/mL
Amount of itraconazole dissolved (120 minutes, A: immediately after production): 43.6 µg/mL
Amount of itraconazole dissolved (120 minutes, B: stored at 40° C. and 75% RH open for one month): 35.3 µg/mL
